Measurements as given in the supplement of paper PMC7666118.
The other results are listed elsewhere or left out.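 The calls were made as follows: active = dose-dependent thermal stabilisation significant by F-test of dose-response against flat model at 10% FDR; inactive = not significant.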

By UniProt entry, the sequences of proteins in these tests, tags left out. Where a name states a change or a piece, a line headed by the entry shows the natural chain unless it says otherwise.
UniProt Q9Y6W3: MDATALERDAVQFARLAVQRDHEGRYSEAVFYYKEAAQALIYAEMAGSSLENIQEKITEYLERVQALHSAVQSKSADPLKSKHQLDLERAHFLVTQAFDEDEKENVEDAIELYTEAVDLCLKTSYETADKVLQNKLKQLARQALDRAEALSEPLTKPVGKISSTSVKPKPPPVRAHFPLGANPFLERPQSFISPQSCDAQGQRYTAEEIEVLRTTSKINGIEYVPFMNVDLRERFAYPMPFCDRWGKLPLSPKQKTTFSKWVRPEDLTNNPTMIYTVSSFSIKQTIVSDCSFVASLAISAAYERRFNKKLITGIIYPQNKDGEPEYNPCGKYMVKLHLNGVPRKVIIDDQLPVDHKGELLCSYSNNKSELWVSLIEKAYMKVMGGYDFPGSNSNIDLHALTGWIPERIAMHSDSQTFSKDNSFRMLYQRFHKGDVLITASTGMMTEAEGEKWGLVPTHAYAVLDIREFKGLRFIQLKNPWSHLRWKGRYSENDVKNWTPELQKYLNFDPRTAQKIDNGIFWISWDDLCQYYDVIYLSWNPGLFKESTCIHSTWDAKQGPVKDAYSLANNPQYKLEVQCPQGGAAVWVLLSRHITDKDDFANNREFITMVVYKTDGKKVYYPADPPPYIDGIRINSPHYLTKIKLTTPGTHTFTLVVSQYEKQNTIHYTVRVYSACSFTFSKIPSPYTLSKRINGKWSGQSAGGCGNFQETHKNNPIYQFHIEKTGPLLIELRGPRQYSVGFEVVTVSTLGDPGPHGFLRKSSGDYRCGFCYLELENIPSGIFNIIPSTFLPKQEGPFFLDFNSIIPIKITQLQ
UniProt Q6ZNE5, whole entry: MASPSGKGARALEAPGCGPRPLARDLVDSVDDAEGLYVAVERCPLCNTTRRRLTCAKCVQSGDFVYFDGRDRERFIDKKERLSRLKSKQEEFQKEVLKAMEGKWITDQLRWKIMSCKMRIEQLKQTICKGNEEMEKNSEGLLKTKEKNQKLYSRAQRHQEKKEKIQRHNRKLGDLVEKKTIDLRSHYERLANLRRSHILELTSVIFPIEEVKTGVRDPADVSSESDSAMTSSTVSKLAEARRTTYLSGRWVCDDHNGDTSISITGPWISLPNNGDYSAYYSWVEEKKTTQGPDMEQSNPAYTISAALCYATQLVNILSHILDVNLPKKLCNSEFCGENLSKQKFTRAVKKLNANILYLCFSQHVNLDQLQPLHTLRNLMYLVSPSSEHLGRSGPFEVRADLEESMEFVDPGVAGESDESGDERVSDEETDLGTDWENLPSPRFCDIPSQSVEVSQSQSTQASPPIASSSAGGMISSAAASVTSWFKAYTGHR
UniProt P41223: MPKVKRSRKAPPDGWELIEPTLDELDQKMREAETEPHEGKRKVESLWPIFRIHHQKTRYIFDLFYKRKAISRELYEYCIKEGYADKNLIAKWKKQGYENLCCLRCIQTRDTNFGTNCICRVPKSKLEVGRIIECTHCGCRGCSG
UniProt P55957: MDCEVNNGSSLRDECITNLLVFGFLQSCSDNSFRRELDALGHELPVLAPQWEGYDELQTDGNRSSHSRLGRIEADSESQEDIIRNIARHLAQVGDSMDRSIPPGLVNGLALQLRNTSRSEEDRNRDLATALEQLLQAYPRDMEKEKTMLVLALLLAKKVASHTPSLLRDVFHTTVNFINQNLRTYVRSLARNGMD
UniProt P56211: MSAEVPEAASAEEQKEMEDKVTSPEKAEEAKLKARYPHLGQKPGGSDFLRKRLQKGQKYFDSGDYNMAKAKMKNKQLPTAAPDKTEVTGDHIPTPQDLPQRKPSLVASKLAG
UniProt Q8NFD5, whole entry: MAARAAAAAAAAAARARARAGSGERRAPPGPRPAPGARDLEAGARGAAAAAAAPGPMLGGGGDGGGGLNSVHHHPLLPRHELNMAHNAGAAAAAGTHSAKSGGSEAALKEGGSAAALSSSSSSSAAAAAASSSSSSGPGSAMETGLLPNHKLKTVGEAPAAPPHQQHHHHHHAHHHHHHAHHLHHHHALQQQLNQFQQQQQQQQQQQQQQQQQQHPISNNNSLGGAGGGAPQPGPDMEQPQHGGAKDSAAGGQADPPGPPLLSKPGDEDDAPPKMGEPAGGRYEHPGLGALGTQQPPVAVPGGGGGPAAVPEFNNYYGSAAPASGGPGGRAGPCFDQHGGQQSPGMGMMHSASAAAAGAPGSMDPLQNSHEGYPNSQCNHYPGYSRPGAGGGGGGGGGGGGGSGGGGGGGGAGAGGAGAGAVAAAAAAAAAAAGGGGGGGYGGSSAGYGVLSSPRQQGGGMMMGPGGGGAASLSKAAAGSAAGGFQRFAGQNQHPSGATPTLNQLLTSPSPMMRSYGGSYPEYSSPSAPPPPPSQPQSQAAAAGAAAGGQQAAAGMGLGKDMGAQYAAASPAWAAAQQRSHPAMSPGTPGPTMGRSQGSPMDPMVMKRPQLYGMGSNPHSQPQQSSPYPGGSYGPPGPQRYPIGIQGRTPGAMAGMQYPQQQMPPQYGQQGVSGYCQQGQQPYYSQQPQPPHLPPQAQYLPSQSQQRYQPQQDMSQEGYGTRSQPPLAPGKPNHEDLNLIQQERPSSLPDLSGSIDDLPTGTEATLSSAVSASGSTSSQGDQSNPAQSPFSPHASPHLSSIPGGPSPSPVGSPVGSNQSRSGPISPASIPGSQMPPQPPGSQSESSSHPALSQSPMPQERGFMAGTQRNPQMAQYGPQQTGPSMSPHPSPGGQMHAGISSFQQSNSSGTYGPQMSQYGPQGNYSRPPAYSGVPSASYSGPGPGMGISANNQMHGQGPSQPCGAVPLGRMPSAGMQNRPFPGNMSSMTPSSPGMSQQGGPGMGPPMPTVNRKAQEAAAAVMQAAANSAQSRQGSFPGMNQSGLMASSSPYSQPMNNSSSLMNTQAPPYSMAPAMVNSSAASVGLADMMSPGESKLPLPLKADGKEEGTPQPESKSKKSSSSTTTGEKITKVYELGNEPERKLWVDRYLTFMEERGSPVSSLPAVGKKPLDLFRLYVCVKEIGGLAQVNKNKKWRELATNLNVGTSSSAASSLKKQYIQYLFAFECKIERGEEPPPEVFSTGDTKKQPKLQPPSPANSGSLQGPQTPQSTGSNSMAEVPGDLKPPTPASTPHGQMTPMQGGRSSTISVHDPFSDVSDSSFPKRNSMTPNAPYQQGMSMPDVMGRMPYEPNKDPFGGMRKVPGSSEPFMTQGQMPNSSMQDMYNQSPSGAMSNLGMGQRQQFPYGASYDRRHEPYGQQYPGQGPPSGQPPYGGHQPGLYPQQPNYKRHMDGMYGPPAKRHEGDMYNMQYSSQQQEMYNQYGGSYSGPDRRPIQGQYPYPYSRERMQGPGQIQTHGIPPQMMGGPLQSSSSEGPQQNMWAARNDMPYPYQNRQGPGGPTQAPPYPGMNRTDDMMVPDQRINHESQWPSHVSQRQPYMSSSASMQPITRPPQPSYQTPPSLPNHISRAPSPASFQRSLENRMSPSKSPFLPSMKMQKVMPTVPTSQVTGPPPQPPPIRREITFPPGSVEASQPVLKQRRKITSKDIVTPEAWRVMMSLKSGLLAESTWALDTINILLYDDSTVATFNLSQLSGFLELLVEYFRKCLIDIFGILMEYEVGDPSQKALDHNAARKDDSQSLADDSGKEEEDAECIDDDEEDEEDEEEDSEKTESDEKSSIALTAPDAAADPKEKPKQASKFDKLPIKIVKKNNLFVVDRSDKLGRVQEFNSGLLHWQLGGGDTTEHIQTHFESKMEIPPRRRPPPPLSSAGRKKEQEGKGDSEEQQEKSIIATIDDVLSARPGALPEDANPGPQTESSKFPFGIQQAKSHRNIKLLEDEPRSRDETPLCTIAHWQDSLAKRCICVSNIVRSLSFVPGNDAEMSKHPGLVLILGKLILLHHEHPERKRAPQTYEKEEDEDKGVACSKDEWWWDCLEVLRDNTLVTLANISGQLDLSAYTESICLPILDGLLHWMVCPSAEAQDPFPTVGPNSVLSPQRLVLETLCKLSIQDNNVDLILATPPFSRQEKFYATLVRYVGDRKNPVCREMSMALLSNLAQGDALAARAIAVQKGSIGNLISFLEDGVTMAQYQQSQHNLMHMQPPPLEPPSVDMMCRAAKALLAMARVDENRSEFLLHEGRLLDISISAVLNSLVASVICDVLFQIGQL
UniProt O95816: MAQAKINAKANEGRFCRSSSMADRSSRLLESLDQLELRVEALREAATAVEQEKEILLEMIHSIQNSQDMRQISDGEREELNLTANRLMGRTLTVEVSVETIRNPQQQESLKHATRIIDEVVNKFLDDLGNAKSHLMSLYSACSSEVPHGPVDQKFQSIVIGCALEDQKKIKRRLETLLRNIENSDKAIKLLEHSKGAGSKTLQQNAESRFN
UniProt Q9NUP1: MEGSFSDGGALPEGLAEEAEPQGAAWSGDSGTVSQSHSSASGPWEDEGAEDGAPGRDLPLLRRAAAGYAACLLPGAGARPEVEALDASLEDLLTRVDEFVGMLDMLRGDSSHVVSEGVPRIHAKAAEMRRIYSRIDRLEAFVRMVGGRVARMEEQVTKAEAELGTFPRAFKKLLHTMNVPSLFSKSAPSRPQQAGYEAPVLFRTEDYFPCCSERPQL
UniProt Q49AR2: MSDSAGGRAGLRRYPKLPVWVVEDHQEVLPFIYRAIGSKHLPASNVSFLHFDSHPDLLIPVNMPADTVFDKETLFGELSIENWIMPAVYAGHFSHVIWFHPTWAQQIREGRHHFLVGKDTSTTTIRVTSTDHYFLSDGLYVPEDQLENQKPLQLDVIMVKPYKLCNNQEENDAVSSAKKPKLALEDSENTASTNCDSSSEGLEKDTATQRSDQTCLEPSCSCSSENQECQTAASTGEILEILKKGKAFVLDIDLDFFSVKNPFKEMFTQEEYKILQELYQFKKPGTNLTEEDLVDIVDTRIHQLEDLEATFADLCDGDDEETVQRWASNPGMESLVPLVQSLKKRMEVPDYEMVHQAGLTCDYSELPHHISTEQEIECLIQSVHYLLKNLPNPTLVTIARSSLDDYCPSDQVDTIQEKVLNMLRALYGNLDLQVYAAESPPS
UniProt Q99622: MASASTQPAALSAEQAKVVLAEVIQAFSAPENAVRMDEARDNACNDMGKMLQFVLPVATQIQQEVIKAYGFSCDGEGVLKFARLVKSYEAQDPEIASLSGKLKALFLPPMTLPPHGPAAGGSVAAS
UniProt P36543, whole entry: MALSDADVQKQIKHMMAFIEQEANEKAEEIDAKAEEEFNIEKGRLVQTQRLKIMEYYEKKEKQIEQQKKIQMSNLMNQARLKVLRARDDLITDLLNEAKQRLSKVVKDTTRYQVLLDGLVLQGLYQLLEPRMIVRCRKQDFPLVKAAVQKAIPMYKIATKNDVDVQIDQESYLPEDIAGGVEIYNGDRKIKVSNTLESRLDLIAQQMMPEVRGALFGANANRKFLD
UniProt Q9Y4X5: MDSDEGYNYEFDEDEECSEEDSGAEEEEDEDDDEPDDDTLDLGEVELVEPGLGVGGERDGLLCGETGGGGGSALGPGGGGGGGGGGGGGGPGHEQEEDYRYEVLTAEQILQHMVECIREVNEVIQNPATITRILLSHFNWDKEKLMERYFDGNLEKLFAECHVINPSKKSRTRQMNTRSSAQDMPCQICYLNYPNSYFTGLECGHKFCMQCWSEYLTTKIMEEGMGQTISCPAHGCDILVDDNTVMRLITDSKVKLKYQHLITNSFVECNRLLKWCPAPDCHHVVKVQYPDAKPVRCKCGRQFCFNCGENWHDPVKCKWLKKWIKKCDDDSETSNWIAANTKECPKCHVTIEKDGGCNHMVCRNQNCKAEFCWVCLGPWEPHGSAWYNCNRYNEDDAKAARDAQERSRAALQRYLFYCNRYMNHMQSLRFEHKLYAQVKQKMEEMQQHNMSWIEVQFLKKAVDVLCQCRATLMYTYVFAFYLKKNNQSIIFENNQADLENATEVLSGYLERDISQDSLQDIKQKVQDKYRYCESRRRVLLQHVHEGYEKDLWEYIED
UniProt Q8NBF6: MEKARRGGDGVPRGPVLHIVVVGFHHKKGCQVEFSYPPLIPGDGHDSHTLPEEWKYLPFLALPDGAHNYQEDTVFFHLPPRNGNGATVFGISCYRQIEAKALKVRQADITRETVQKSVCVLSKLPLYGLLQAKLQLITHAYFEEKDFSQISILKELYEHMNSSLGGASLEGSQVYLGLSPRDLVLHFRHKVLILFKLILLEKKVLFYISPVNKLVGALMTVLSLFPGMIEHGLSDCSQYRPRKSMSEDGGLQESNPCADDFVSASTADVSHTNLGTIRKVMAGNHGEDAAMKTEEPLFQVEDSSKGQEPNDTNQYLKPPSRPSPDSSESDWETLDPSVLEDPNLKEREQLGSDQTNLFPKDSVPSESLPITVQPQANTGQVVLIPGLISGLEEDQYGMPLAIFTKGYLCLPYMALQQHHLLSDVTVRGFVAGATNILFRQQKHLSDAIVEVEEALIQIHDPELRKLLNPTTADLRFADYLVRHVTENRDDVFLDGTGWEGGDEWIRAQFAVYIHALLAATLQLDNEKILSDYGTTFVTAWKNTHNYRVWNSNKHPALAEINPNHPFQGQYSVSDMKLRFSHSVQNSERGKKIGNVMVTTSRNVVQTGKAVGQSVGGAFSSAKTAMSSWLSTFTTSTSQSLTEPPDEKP

compound: Nc1nc2c(ncn2[C@@H]2O[C@H](COP(=O)(O)OP(=O)(O)OP(=O)(O)O)[C@@H](O)[C@H]2O)c(=O)[nH]1; experiment: dose-dependent thermal stabilisation call (2D-TPP, DLPTP, 10% FDR) (binary (1 = stabilised)); higher = stabilised by the compound; conditions: system: Jurkat gel-filtered lysate; concentration range 1-500 µM

dose-dependent thermal stabilisation call, active:
C19orf54 (UniProt Q5BKX5) 1
CAPN7 (UniProt Q9Y6W3) 1
BROX (UniProt Q5VW32) 1
CACTIN (UniProt Q8WUQ7) 1

dose-dependent thermal stabilisation call, inactive:
BPHL (UniProt Q86WA6) 0
BMS1 (UniProt Q14692) 0
ATG14 (UniProt Q6ZNE5) 0
ARMC1 (UniProt Q9NVT9) 0
BAHD1 (UniProt Q8TBE0) 0
BUD31 (UniProt P41223) 0
BNIP2 (UniProt Q12982) 0
ATF7IP (UniProt Q6VMQ6) 0
BID (UniProt P55957) 0
ARPP19 (UniProt P56211) 0
ATP7A (UniProt Q04656) 0
ARID1B (UniProt Q8NFD5) 0
C2orf76 (UniProt Q3KRA6) 0
ATF2 (UniProt P15336) 0
C1orf52 (UniProt Q8N6N3) 0
ATP6V1F (UniProt Q16864) 0
ARNT (UniProt P27540) 0
ATPAF2 (UniProt Q8N5M1) 0
BZW1 (UniProt Q7L1Q6) 0
BUB1 (UniProt O43683) 0
BAG2 (UniProt O95816) 0
ARHGEF2 (UniProt Q92974) 0
BLOC1S4 (UniProt Q9NUP1) 0
C5orf22 (UniProt Q49AR2) 0
BAG3 (UniProt O95817) 0
C12orf57 (UniProt Q99622) 0
ATP6V1E1 (UniProt P36543) 0
BCL11B (UniProt Q9C0K0) 0
ARIH1 (UniProt Q9Y4X5) 0
BACH2 (UniProt Q9BYV9) 0
AVL9 (UniProt Q8NBF6) 0
C20orf27 (UniProt Q9GZN8) 0

Pulled one by one from the list above (two):
dose-dependent thermal stabilisation call, inactive:
ARMC1 (UniProt Q9NVT9) 0
ATF7IP (UniProt Q6VMQ6) 0
